# Test results from the supplement of paper PMC10470496.
# “And” between values parts separate entries of the source, which are not always exact repeats. Equal values may be shown once. Where a name gives a salt, the structure may show the parent alone. Some of the results follow. Single values are uncertain, as repeats are few or missing.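 The strains were three CDC resistance-bank clinical C. auris isolates from clades III, IV and I, cultured in RPMI-1640 at 35°C. Growth was background-corrected OD600 versus vehicle-only wells on the same plate. A hit needed >50% inhibition in two or more strains plus a plate-corrected B-score exceeding 0.1.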
# Assays:
# Test in all cases: growth relative to vehicle control (OD600 ratio) (fraction); higher = less inhibition
# Settings in all cases: 24 h
# [1] = system: C. auris AR-384
# [2] = system: C. auris AR-386
# [3] = system: C. auris AR-387
SMILES,growth ([1]; 1 µM),growth ([1]; 10 µM),growth ([2]; 1 µM),growth ([2]; 10 µM),growth ([3]; 1 µM),growth ([3]; 10 µM)
COc1ccc(C(=O)c2ccccc2)c(O)c1 [Oxybenzone],0.67,0.89,1.01,0.93,0.96,0.74
CCCc1cc(C(N)=S)ccn1 [Protionamide],1.57,1.14,1.01,1.09,1.01,0.93
CSc1nc2cc(Cl)c(Oc3cccc(Cl)c3Cl)cc2[nH]1 [Triclabendazole],0.77,0.13,0.83,0.76,0.85,0.01
C[C@@H]1CN(c2c(F)c(N)c3c(=O)c(C(=O)O)cn(C4CC4)c3c2F)C[C@H](C)N1 [Sparfloxacin],0.96,0.87,1.05,1.09,1.01,0.9
CS(=O)(=O)n1cc2c(n1)CN([C@H]1CO[C@H](c3cc(F)ccc3F)[C@@H](N)C1)C2 [Omarigliptin (MK-3102)],1.13,1.34,1.14,1.22,1.13,1.12
Nc1ccc(C(=O)O)c(O)c1 [Sodium 4-Aminosalicylate],0.97,0.91,0.89,0.8,0.9,1.11
CC(=O)c1c(C)c2cnc(Nc3ccc(N4CCNCC4)cn3)nc2n(C2CCCC2)c1=O,0.67 and 1.18,1.19,0.87 and 0.98,1.13 and 1.39,0.8 and 1.02,1.18 and 1.01
CN(Cc1ccc(C(C)(C)C)cc1)Cc1cccc2ccccc12 [Butenafine HCl],0.93,0.46,0.52,0.28,0.37,0.26
NS(=O)(=O)c1ccc(C(=O)O)cc1 [Carzenide],1.19,1.09,1.02,1.17,0.95,0.92
CO/N=C(\C(=O)N[C@@H]1C(=O)N2C(C(=O)O)=C(COC(N)=O)CS[C@H]12)c1ccco1 [Cefuroxime sodium],0.98,1.14,1.19,0.84,0.99,1.04
C[C@@H](O)[C@H]1C(=O)N2C(C(=O)[O-])=C(SC3Cn4cnc[n+]4C3)[C@H](C)[C@H]12 (some centres undefined) [Biapenem],0.86,1.04,0.97,1.28,1.06,1.08
CC(C)NCC(O)COc1ccc(CCOCC2CC2)cc1 (centres undefined) [Betaxolol],0.91,1,0.91,1.01,1,0.88
Nc1nc(NC2CC2)c2ncn([C@H]3C=C[C@@H](CO)C3)c2n1 [Abacavir sulfate],0.7,0.67,0.78,0.67,0.84,0.77
NCCC[C@H](N)C(=O)O [L-Ornithine],0.88,1.2,0.91,1.02,0.78,1.04
Nc1nc2c(ncn2COCCO)c(=O)[nH]1 [Aciclovir],0.72,0.59,0.66,0.82,0.71,0.73
CCCC(CCC)C(=O)O [Divalproex Sodium],1.07,1.18,1.05,0.56,0.71,0.85
CC(=O)O[C@H]1C[C@@H]2CC[C@@H]3[C@H](CC[C@@]4(C)[C@H]3C[C@H]([N+]3(C)CCCCC3)[C@@H]4OC(C)=O)[C@@]2(C)C[C@@H]1N1CCCCC1 [Vecuronium Bromide],0.61,1.01,0.96,0.76,0.81,0.86
C#C[C@]1(OC(C)=O)CC[C@H]2[C@@H]3CCC4=C[C@@H](OC(C)=O)CC[C@@H]4[C@H]3CC[C@@]21C [Ethynodiol diacetate],0.75,0.65,0.85,0.71,0.81,0.81
CC1=C(C(=O)O)N2C(=O)[C@@H](NC(=O)[C@H](N)c3ccccc3)[C@H]2SC1 [Cephalexin],0.96,0.76,0.69,0.85,0.84,1.11
Cc1nc(-c2ccc(OCC(C)C)c(C#N)c2)sc1C(=O)O [Febuxostat],0.91,1.54,1.33,1.69,1.2,1.34
Nc1ccn([C@@H]2O[C@H](CO)[C@@H](O)C2(F)F)c(=O)n1 [Gemcitabine],1.04,1.1,0.74,0.95,0.79,1.01
CN(C)c1cc(NC(=O)CNC(C)(C)C)c(O)c2c1C[C@H]1C[C@H]3[C@H](N(C)C)C(O)=C(C(N)=O)C(=O)[C@@]3(O)C(O)=C1C2=O [Tigecycline],0.88,0.85,1.14,1.09,0.98,1.11

SMILES,growth ([1]; 1 µM),growth ([1]; 10 µM),growth ([2]; 1 µM),growth ([2]; 10 µM),growth ([3]; 1 µM),growth ([3]; 10 µM)
CN(C)Cc1ccc(S(=O)(=O)n2ccc(/C=C/C(=O)NO)c2)cc1 [Resminostat],0.97,0.94,0.62,1.27,1.05,1.12
CC(C)(Oc1ccc(Cl)cc1)C(=O)O [Clofibric Acid],1.12,0.93,1.1,0.85,0.87,0.87
CN(C)CC/C=C1/c2ccccc2COc2ccc(CC(=O)O)cc21 [Olopatadine HCl],0.83,1.16,0.68,1.01,1.11,1.21
CO[C@@H]1[C@H](N(C)C(=O)c2ccccc2)C[C@H]2O[C@]1(C)n1c3ccccc3c3c4c(c5c6ccccc6n2c5c31)C(=O)NC4 [Midostaurin (PKC412)],0.97,0.7,0.6,0.75,0.85,0.84
CCCN1CCCC[C@H]1C(=O)Nc1c(C)cccc1C [Ropivacaine HCl],0.94,0.85,0.82,0.95,0.77,0.89
CN[C@@H]1[C@H](O[C@H]2[C@H](O[C@H]3[C@H](O)[C@@H](O)[C@H](N=C(N)N)[C@@H](O)[C@@H]3N=C(N)N)O[C@@H](C)[C@]2(O)C=O)O[C@@H](CO)[C@H](O)[C@H]1O [Streptomycin sulfate],0.82,0.88,0.97,0.82,1.03,0.89
OCc1cc(C(O)CNCCCCCCOCCCCc2ccccc2)ccc1O (centres undefined) [Salmeterol Xinafoate],1.08,1.08,0.77,0.88,1,0.87
NS(=O)(=O)c1cc(C(=O)O)c(NCc2ccco2)cc1Cl [Furosemide],1.1,0.82,1.09,1.25,1.23,1.18
O=c1[nH]c(=O)c2ccccc2o1 [Carsalam],0.92,0.97,0.96,1.1,0.75,0.98
COc1cc([C@@H]2c3cc4c(cc3[C@@H](O[C@@H]3O[C@@H]5CO[C@@H](C)O[C@H]5[C@H](O)[C@H]3O)[C@H]3COC(=O)[C@H]23)OCO4)cc(OC)c1O [Etoposide],0.67,0.9,1.03,0.73,0.7,0.95
CCN(CC)C(=S)SSC(=S)N(CC)CC [Disulfiram],0.9,0.82,1.04,0.24,1.01,0.05
O=C(O)P(=O)(O)O [Foscarnet Sodium],1.36,1.14,1.33,0.91,0.96,1.02
O=C1CC2(CCCC2)CC(=O)N1CCCCN1CCN(c2ncccn2)CC1 [Buspirone HCl],0.79,0.58,0.84,0.7,0.81,0.78
Nc1c(CC(=O)O)cccc1C(=O)c1ccc(Br)cc1 [Bromfenac Sodium],1.07,0.87,0.82,0.86,0.86,1.02
Cc1ccc(NC(=O)c2ccc(CN3CCN(C)CC3)cc2)cc1Nc1nccc(-c2cccnc2)n1 [Imatinib Mesylate (STI571)],0.81,0.61,0.84,0.82,0.92,0.9
CCOC(=O)c1c(C)n(C)c2ccc(O)cc12 [Mecarbinate],0.99,0.8,0.94,1.14,1.04,1.1
Cn1c(=O)c2c(ncn2CC2OCCO2)n(C)c1=O [Doxofylline],0.91,0.88,0.54,1.08,0.81,0.75
CC[C@H](C)[C@H](NC(=O)[C@@H]1CCCN1C(=O)CNC(=O)[C@H](Cc1ccccc1)NC(=O)[C@H](CC(N)=O)NC(=O)[C@H](CC(N)=O)NC(=O)[C@H](CO)NC(=O)[C@H](CO)NC(=O)[C@H](Cc1c[nH]cn1)NC(=O)[C@@H](NC(=O)[C@H](CC(C)C)NC(=O)[C@H](Cc1ccccc1)NC(=O)[C@H](CC(N)=O)NC(=O)[C@H](C)NC(=O)[C@H](CC(C)C)NC(=O)[C@H](CCCNC(=N)N)NC(=O)[C@H](CCC(N)=O)NC(=O)[C@@H](NC(=O)[C@H](C)NC(=O)[C@@H]1CSSC[C@H](NC(=O)[C@@H](N)CCCCN)C(=O)N[C@@H](CC(N)=O)C(=O)N[C@@H]([C@@H](C)O)C(=O)N[C@@H](C)C(=O)N[C@@H]([C@@H](C)O)C(=O)N1)[C@@H](C)O)C(C)C)C(=O)N[C@@H](CC(C)C)C(=O)N1CCC[C@H]1C(=O)N1CCC[C@H]1C(=O)N[C@H](C(=O)N[C@@H](CC(N)=O)C(=O)N[C@H](C(=O)NCC(=O)N[C@@H](CO)C(=O)N[C@@H](CC(N)=O)C(=O)N[C@H](C(=O)N[C@@H](Cc1ccc(O)cc1)C(N)=O)[C@@H](C)O)C(C)C)[C@@H](C)O [Pramlintide Acetate],0.72,0.94,0.53,0.71,0.78,0.81
OC[C@@H](O)CN1CCN(c2ccccc2)CC1 [Levodropropizine],0.75,0.87,0.8,0.95,0.88,0.85
CC1(C)CCC(c2ccc(Cl)cc2)=C(CN2CCN(c3ccc(C(=O)NS(=O)(=O)c4ccc(N[C@H](CCN5CCOCC5)CSc5ccccc5)c(S(=O)(=O)C(F)(F)F)c4)cc3)CC2)C1 [Navitoclax (ABT-263)],1.27,1,0.69,1.19,0.91,1.09
CS(=O)(=O)N1CCN(Cc2cc3nc(-c4cccc5[nH]ncc45)nc(N4CCOCC4)c3s2)CC1 [Pictilisib (GDC-0941)],0.9,0.99,0.94,0.83,0.82,0.83
CCCCCOc1ccc(-c2cc(-c3ccc(C(=O)N[C@H]4C[C@@H](O)[C@@H](O)NC(=O)[C@@H]5[C@@H](O)[C@@H](C)CN5C(=O)[C@H]([C@H](O)CC(N)=O)NC(=O)[C@H]([C@H](O)[C@@H](O)c5ccc(O)c(OS(=O)(=O)O)c5)NC(=O)[C@@H]5C[C@@H](O)CN5C(=O)[C@H]([C@@H](C)O)NC4=O)cc3)no2)cc1 [Micafungin Sodium],0.45,0.49,0.08,0.08,0,0.12

# Some of these compounds in order of number of heavy atoms, ascending:
SMILES,growth ([1]; 1 µM),growth ([1]; 10 µM),growth ([2]; 1 µM),growth ([2]; 10 µM),growth ([3]; 1 µM),growth ([3]; 10 µM)
Nc1ccc(C(=O)O)c(O)c1 [Sodium 4-Aminosalicylate],0.97,0.91,0.89,0.8,0.9,1.11
CCN(CC)C(=S)SSC(=S)N(CC)CC [Disulfiram],0.9,0.82,1.04,0.24,1.01,0.05
OC[C@@H](O)CN1CCN(c2ccccc2)CC1 [Levodropropizine],0.75,0.87,0.8,0.95,0.88,0.85
Nc1ccn([C@@H]2O[C@H](CO)[C@@H](O)C2(F)F)c(=O)n1 [Gemcitabine],1.04,1.1,0.74,0.95,0.79,1.01
Cn1c(=O)c2c(ncn2CC2OCCO2)n(C)c1=O [Doxofylline],0.91,0.88,0.54,1.08,0.81,0.75
Nc1c(CC(=O)O)cccc1C(=O)c1ccc(Br)cc1 [Bromfenac Sodium],1.07,0.87,0.82,0.86,0.86,1.02
CC1=C(C(=O)O)N2C(=O)[C@@H](NC(=O)[C@H](N)c3ccccc3)[C@H]2SC1 [Cephalexin],0.96,0.76,0.69,0.85,0.84,1.11
OCc1cc(C(O)CNCCCCCCOCCCCc2ccccc2)ccc1O (centres undefined) [Salmeterol Xinafoate],1.08,1.08,0.77,0.88,1,0.87
CN[C@@H]1[C@H](O[C@H]2[C@H](O[C@H]3[C@H](O)[C@@H](O)[C@H](N=C(N)N)[C@@H](O)[C@@H]3N=C(N)N)O[C@@H](C)[C@]2(O)C=O)O[C@@H](CO)[C@H](O)[C@H]1O [Streptomycin sulfate],0.82,0.88,0.97,0.82,1.03,0.89
CO[C@@H]1[C@H](N(C)C(=O)c2ccccc2)C[C@H]2O[C@]1(C)n1c3ccccc3c3c4c(c5c6ccccc6n2c5c31)C(=O)NC4 [Midostaurin (PKC412)],0.97,0.7,0.6,0.75,0.85,0.84
